Test results: publication PMC7599336
No constants are given. Whether binding was seen depends on the method and setting. Binding seen in cells or lysates may run through a third protein. Some entries that bind do so weakly or less than the wild type. For part of these data: Where a sequence is shown, tags or fusion partners need not be part of it.

By UniProt entry, the sequences of proteins in these tests, tags left out.
UniProt P27986: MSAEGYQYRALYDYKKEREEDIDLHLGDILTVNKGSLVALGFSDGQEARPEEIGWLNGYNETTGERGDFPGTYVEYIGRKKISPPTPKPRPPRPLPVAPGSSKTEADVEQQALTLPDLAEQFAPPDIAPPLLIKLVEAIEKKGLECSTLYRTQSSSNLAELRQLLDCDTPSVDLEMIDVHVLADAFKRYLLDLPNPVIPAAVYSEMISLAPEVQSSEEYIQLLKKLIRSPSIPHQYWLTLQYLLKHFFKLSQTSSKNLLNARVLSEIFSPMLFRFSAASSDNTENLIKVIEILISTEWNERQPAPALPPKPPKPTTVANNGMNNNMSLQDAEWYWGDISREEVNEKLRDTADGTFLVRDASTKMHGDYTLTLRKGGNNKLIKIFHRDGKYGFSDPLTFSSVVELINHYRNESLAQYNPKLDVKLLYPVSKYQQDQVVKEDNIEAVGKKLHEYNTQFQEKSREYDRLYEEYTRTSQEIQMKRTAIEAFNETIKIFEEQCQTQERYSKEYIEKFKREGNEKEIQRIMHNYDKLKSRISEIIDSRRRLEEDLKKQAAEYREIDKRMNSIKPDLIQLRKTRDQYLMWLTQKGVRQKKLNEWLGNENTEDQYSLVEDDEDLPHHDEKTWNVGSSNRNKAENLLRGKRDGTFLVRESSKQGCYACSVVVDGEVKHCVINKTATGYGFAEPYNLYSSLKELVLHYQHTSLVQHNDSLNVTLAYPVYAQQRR

B1: insulin receptor substrate 1 (IRS1), endogenous, P35568 1-1242 (protein)
chain: MASPPESDGFSDVRKVGYLRKPKSMHKRFFVLRAASEAGGPARLEYYENEKKWRHKSSAPKRSIPLESCFNINKRADSKNKHLVALYTRDEHFAIAADSEAEQDSWYQALLQLHNRAKGHHDGAAALGAGGGGGSCSGSSGLGEAGEDLSYGDVPPGPAFKEVWQVILKPKGLGQTKNLIGIYRLCLTSKTISFVKLNSEAAAVVLQLMNIRRCGHSENFFFIEVGRSAVTGPGEFWMQVDDSVVAQNMHETILEAMRAMSDEFRPRSKSQSSSNCSNPISVPLRRHHLNNPPPSQVGLTRRSRTESITATSPASMVGGKPGSFRVRASSDGEGTMSRPASVDGSPVSPSTNRTHAHRHRGSARLHPPLNHSRSIPMPASRCSPSATSPVSLSSSSTSGHGSTSDCLFPRRSSASVSGSPSDGGFISSDEYGSSPCDFRSSFRSVTPDSLGHTPPARGEEELSNYICMGGKGPSTLTAPNGHYILSRGGNGHRCTPGTGLGTSPALAGDEAASAADLDNRFRKRTHSAGTSPTITHQKTPSQSSVASIEEYTEMMPAYPPGGGSGGRLPGHRHSAFVPTRSYPEEGLEMHPLERRGGHHRPDSSTLHTDDGYMPMSPGVAPVPSGRKGSGDYMPMSPKSVSAPQQIINPIRRHPQRVDPNGYMMMSPSGGCSPDIGGGPSSSSSSSNAVPSGTSYGKLWTNGVGGHHSHVLPHPKPPVESSGGKLLPCTGDYMNMSPVGDSNTSSPSDCYYGPEDPQHKPVLSYYSLPRSFKHTQRPGEPEEGARHQHLRLSTSSGRLLYAATADDSSSSTSSDSLGGGYCGARLEPSLPHPHHQVLQPHLPRKVDTAAQTNSRLARPTRLSLGDPKASTLPRAREQQQQQQPLLHPPEPKSPGEYVNIEFGSDQSGYLSGPVAFHSSPSVRCPSQLQPAPREEETGTEEYMKMDLGPGRRAAWQESTGVEMGRLGPAPPGAASICRPTRAVPSSRGDYMTMQMSCPRQSYVDTSPAAPVSYADMRTGIAAEEVSLPRATMAAASSSSAASASPTGPQGAAELAAHSSLLGGPQGPGGMSAFTRVNLSPNRNQSAKVIRADPQGCRRRHSSETFSSTPSATRVGNTVPFGAGAAVGGGGGSSSSSEDVKRHSSASFENVWLRPGELGGAPKEPAKLCGAAGGLENGLNYIDLDLVKDFKQCPQECTPEPQPPPPPPPHQPLGSGESSSTRRSSEDLSAYASISFQKQPEDRQ
B2: PRR11 wild type, V5-tagged (pLX302-PRR11-V5) (protein, UniProt Q96HE9 1-360)
chain: MPKFKQRRRKLKAKAERLFKKKEASHFQSKLITPPPPPPSPERVGISSIDISQSRSWLTSSWNFNFPNIRDAIKLWTNRVWSIYSWCQNCITQSLEVLKDTIFPSRICHRELYSVKQQFCILESKLCKLQEALKTISESSSCPSCGQTCHMSGKLTNVPACVLITPGDSKAVLPPTLPQPASHFPPPPPPPPLPPPPPPLAPVLLRKPSLAKALQAGPLKKDGPMQITVKDLLTVKLKKTQSLDEKRKLIPSPKARNPLVTVSDLQHVTLKPNSKVLSTRVTNVLITPGKSQMDLRKLLRKVDVERSPGGTPLTNKENMETGTGLTPVMTQALRRKFQLAHPRSPTPTLPLSTSSFDEQN

What was measured:
[1] = molecular target: p110α catalytic subunit of PI3K, endogenous in MDA-MB-175VII cells (human (endogenous in MDA-MB-175VII)), P42336; experiment: co-IP; MCF7 LTED (control or PRR11 siRNA) and MDA-MB-175VII (pLX302-LacZ or pLX302-PRR11) serum-starved 24 h, then 100 nM insulin for 10 min; lysates precipitated with a p110α antibody or IgG, immunoblot; conditions: remark: other sources report otherwise
[2] = molecular target: p85α (PIK3R1), Flag-tagged (pLenti7.3-PIK3R1-Flag), in HEK293 (UniProt P27986); experiment: co-IP; HEK293 co-transduced with pLenti7.3-PIK3R1-Flag and pLX302-PRR11 WT or ΔPR; lysates precipitated with a Flag antibody (Dynabeads Protein G), immunoblot
[3] = molecular target: p85α (PIK3R1), Flag-tagged (pLenti7.3-PIK3R1-Flag), in HEK293 (UniProt P27986); experiment: proximity ligation; HEK293 cells transfected with pLX302-PRR11-V5 and pLenti7.3-PIK3R1-Flag, V5 and Flag antibodies, Duolink In Situ Red

| Binder | binding [1] | binding [2] | binding [3] |
| --- | --- | --- | --- |
| B1 | binds |  |  |
| B2 |  | binds | binds |
